Paper PMC9198812
No constants are given. Whether binding was seen depends on the method and setting.

The chains behind the UniProt entries cited, without tags or fusion partners. Where a name states a change or a piece, a line headed by the entry shows the natural chain unless it says otherwise.
UniProt P03692: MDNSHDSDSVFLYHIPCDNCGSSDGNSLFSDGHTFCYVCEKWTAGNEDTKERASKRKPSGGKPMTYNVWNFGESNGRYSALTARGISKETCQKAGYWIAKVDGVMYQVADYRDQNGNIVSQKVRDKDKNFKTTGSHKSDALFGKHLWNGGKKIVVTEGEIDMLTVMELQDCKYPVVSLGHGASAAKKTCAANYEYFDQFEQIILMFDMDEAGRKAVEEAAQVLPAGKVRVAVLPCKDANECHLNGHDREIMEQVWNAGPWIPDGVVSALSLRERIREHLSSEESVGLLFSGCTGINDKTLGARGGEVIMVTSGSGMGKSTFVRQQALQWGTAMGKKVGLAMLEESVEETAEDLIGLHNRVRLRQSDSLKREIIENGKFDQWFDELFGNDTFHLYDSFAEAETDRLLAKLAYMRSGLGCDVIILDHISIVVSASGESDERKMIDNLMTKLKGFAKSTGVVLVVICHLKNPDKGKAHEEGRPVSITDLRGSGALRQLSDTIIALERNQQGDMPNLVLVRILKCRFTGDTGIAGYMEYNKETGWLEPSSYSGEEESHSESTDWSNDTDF

What was measured:
[1] = target: bacteriophage T7 primase-helicase gp4 Y111A (63 kDa form) (bacteriophage T7) (UniProt P03692); assay: condition: only in the absence of ssDNA and [β,γ-CH2] dTTP; 8.7 nM gp4 hexamer; mass photometry; self-association; 8.7 nM gp4 (hexamer concentration) in 40 mM Tris-HCl pH 7.5, 150 mM KCl, 10 mM MgCl2, 25 °C, 15 min, in the absence of ligand; Refeyn OneMP; both purified
[2] = target: bacteriophage T7 primase-helicase gp4, wild type (63 kDa form) (bacteriophage T7) (UniProt P03692); assay: as above

With “bacteriophage T7 primase-helicase gp4 Y111A (63 kDa form) (from UniProt P03692 1-566) (enzyme)” the binding [1] was “no binding”.
For “bacteriophage T7 primase-helicase gp4, wild type (63 kDa form) (from UniProt P03692 1-566) (enzyme)”, the binding [2] was “no binding”.
